Experimental findings from PMC13440570 are described below.

Results are given in words; binding and its absence hold for the method and conditions named. For part of these data: Binding seen in cells or lysates may run through a third protein. Where a sequence is shown, tags or fusion partners need not be part of it.

Assay [1] deals with T1, GST-SDS^FL (Arabidopsis thaliana) (UniProt Q1PFW3).
T1 sequence: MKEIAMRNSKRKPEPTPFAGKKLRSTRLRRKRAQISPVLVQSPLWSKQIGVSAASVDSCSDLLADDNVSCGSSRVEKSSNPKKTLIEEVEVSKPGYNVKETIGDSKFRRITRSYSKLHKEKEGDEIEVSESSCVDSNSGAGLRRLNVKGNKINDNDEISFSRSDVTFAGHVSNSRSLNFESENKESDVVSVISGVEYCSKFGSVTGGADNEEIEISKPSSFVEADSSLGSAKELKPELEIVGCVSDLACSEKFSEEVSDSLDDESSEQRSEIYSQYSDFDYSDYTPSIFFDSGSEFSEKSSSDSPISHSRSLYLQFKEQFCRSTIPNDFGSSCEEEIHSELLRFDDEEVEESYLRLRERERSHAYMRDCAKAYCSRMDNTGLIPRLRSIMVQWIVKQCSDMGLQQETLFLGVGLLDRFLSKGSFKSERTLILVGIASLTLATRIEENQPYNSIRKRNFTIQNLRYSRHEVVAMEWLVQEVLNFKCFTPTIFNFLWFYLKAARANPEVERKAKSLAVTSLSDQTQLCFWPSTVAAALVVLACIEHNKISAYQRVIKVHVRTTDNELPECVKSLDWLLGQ
The experiment in a line: pull-down; in vitro pull-down of GST- and HisMBP-tagged proteins (Figure S8); who was held is not told.

Assay [2] concerns the target T2, SDS^1–330 (yeast two-hybrid fusion) (Arabidopsis thaliana) (UniProt Q1PFW3).
T2 sequence: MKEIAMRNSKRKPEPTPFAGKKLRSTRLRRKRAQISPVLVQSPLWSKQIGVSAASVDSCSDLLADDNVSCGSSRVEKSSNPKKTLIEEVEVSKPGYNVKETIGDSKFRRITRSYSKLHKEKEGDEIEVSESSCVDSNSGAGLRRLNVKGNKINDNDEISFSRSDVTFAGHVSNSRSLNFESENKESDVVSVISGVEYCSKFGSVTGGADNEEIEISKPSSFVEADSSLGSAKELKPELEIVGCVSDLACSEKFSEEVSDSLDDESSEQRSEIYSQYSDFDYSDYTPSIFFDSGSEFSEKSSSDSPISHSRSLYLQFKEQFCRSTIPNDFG
Nature of the assay: two-hybrid; S. cerevisiae AH109, pGADT7-GW and pGBKT7-GW fusions; growth on SD -Leu/-Trp/-His and -Leu/-Trp/-His/-Ade, 28 °C for 3 d.

Assay [3] concerns the target T3, SDS^331–578 (yeast two-hybrid fusion) (Arabidopsis thaliana) (UniProt Q1PFW3).
T3 sequence: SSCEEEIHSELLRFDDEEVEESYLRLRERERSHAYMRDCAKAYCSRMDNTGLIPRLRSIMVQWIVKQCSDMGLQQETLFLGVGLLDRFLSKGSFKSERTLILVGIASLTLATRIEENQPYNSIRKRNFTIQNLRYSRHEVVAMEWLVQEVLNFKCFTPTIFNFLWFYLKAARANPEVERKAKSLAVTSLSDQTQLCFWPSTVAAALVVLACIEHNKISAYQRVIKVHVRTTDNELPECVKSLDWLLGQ
The description is as above.

For assay [4], the target named is T4, DMC1-BD (yeast two-hybrid fusion) (Arabidopsis thaliana) (UniProt Q39009).
T4 sequence: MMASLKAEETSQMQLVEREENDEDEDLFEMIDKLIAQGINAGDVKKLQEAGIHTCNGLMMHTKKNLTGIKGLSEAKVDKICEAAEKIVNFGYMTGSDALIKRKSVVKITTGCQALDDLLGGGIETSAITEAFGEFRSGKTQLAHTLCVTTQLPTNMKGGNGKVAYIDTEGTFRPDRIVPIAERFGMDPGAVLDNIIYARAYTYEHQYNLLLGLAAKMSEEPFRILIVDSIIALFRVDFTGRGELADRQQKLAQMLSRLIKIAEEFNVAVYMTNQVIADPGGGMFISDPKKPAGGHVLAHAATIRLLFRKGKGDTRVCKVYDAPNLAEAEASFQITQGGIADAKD
The assay is described as above.

Assay [5] deals with T5, DMC1 (BiFC fusion) (Arabidopsis thaliana) (UniProt Q39009).
T5 sequence: T4 sequence
The experiment in a line: split reporter; BiFC of ASY1 with DMC1 (Figure S2); system and constructs not given.

B1: HisMBP-ASY1^1–300 (domain or fragment, UniProt F4HRV8 1-300)
chain: MVMAQKLKEAEITEQDSLLLTRNLLRIAIFNISYIRGLFPEKYFNDKSVPALDMKIKKLMPMDAESRRLIDWMEKGVYDALQRKYLKTLMFSICETVDGPMIEEYSFSFSYSDSDSQDVMMNINRTGNKKNGGIFNSTADITPNQMRSSACKMVRTLVQLMRTLDKMPDERTIVMKLLYYDDVTPPDYEPPFFRGCTEDEAQYVWTKNPLRMEIGNVNSKHLVLTLKVKSVLDPCEDENDDMQDDGKSIGPDSVHDDQPSDSDSEISQTQENQFIVAPVEKQDDDDGEVDEDDNTQDPAE
In the case of B1, the binding result in assay [1] is listed as “no binding”.

B2: ASY1^1–300 (yeast two-hybrid fusion) (domain or fragment, UniProt F4HRV8 1-300)
chain: B1 chain
For the molecule B2, the binding result in assay [2] and in assay [3] was “no binding” in each case.

B3: ASY1^301–596 (yeast two-hybrid fusion) (domain or fragment, UniProt F4HRV8 301-596)
chain: NEQQLARVKDWINSRHLDTLELTDILANFPDISIVLSEEIMDQLVTEGVLSKTGKDMYIKKRDKTPESEFTFVKEEADGQISPGKSVAPEDYLYMKALYHSLPMKYVTITKLHNMLDGEANQTAVRKLMDRMTQEGYVEASSNRRLGKRVIHSSLTEKKLNEVRKVLATDDMDVDVTETINKTNGPDAKVTADVSTCGGIHSIGSDFTRTKGRSGGMQQNGSVLSEQTISKAGNTPISNKAQPAASRESFAVHGGAVKEAETVNCSQASQDRRGRKTSMVREPILQYSKRQKSQAN
With B3, the binding entry in assay [2] and in assay [3] was “no binding” in each case.

B4: ASY1-AD (full-length …1, yeast two-hybrid fusion) (protein, UniProt F4HRV8 1-596)
chain: MVMAQKLKEAEITEQDSLLLTRNLLRIAIFNISYIRGLFPEKYFNDKSVPALDMKIKKLMPMDAESRRLIDWMEKGVYDALQRKYLKTLMFSICETVDGPMIEEYSFSFSYSDSDSQDVMMNINRTGNKKNGGIFNSTADITPNQMRSSACKMVRTLVQLMRTLDKMPDERTIVMKLLYYDDVTPPDYEPPFFRGCTEDEAQYVWTKNPLRMEIGNVNSKHLVLTLKVKSVLDPCEDENDDMQDDGKSIGPDSVHDDQPSDSDSEISQTQENQFIVAPVEKQDDDDGEVDEDDNTQDPAENEQQLARVKDWINSRHLDTLELTDILANFPDISIVLSEEIMDQLVTEGVLSKTGKDMYIKKRDKTPESEFTFVKEEADGQISPGKSVAPEDYLYMKALYHSLPMKYVTITKLHNMLDGEANQTAVRKLMDRMTQEGYVEASSNRRLGKRVIHSSLTEKKLNEVRKVLATDDMDVDVTETINKTNGPDAKVTADVSTCGGIHSIGSDFTRTKGRSGGMQQNGSVLSEQTISKAGNTPISNKAQPAASRESFAVHGGAVKEAETVNCSQASQDRRGRKTSMVREPILQYSKRQKSQAN
For the molecule B4, the binding entry in assay [4], in assay [2] and in assay [3] was “no binding” throughout.

B5: ASY1 (BiFC fusion used in the test with DMC1) (protein, UniProt F4HRV8 1-596)
chain: B4 chain
For B5, the binding result in assay [5] is given as “no binding”.
